{
  "source": "the supplement of paper PMC4604168 (melanoma cell lines)",
  "note": "Some of the results follow. Single values are uncertain, as repeats are few or missing.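 Cells were imaged in 1,536-well plates, and nuclei stained with an antibody against cleaved PARP were counted against all DNA-stained nuclei to give the apoptosis fraction. Screening doses were chosen to leave most cells alive, and resting and induced cleaved-PARP levels differ strongly between cell lines.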",
  "data": [
    {"system": "WM115", "assay": "cleaved PARP positive nuclei fraction relative to DMSO control; higher = more apoptosis", "details": "library dose: low library concentration; 72 h", "units": {"cleaved PARP positive nuclei fraction": "%"}, "values": [
      {"smiles": "CN1CCN(c2ccc3nc(-c4c(N)c5c(F)cccc5[nH]c4=O)[nH]c3c2)CC1", "note": "[Dovitinib] + NC(=O)Nc1cc(-c2cccc(F)c2)sc1C(=O)N[C@H]1CCCNC1 [AZD7762] (first compound 0.1 µM, partner dose 0.02 µM)", "cleaved PARP positive nuclei fraction": 75.8},
      {"smiles": "O=C(O)[C@@H]1[O][Sb](=[O])([O][Sb]2(=[O])[O][C@H]([C@H](O)CO)[C@H](O)[C@H](C(=O)O)[O]2)[O][C@H]([C@H](O)CO)[C@@H]1O", "note": "(some centres undefined) [stibogluconate] + OCCn1cc(-c2cnc3nnn(Cc4ccc5ncccc5c4)c3n2)cn1 [PF04217903] (first compound 2 µM, partner dose 1 µM)", "cleaved PARP positive nuclei fraction": 196},
      {"smiles": "CS(=O)(=O)CCNCc1ccc(-c2ccc3ncnc(Nc4ccc(OCc5cccc(F)c5)c(Cl)c4)c3c2)o1", "note": "[lapatinib] + COc1ccc(COc2ccc(Cc3cnc(N)nc3N)cc2OC)cc1 [GW2580] (first compound 0.8 µM, partner dose 1 µM)", "cleaved PARP positive nuclei fraction": 86.5}
    ]},
    {"system": "WM1716", "assay": "cleaved PARP positive nuclei fraction relative to DMSO control; melanoma cells; higher = more apoptosis", "details": "library dose: low library concentration; 72 h", "units": {"cleaved PARP positive nuclei fraction": "%"}, "values": [
      {"smiles": "C=C(c1ccc(C(=O)O)cc1)c1cc2c(cc1C)C(C)(C)CCC2(C)C", "note": "[Bexarotene] + CC(C)(C)c1cnc(CSc2cnc(NC(=O)C3CCNCC3)s2)o1 [SNS-032] (first compound 2 µM, partner dose 0.01 µM)", "cleaved PARP positive nuclei fraction": 46.8},
      {"smiles": "Cc1cc(Nc2cc(N3CCN(C)CC3)nc(/C=C/c3ccccc3)n2)n[nH]1", "note": "+ COc1cc(N2CCC(N3CCN(C)CC3)CC2)ccc1Nc1ncc(Cl)c(Nc2ccccc2S(=O)(=O)C(C)C)n1 [NVP-TAE684] (first compound 0.04 µM, partner dose 0.08 µM)", "cleaved PARP positive nuclei fraction": 264},
      {"smiles": "O=C(O)c1ccc2c(c1)nc(Nc1cccc(Cl)c1)c1ccncc12", "note": "+ Oc1nc(-c2ccc(C(F)(F)F)cc2)nc2c1CSCC2 [XAV939] (first compound 0.4 µM, partner dose 2 µM)", "cleaved PARP positive nuclei fraction": 284},
      {"smiles": "Nc1ccn([C@@H]2O[C@H](CO)[C@@H](O)C2(F)F)c(=O)n1", "note": "[gemcitabine] + COC(=O)c1sccc1S(=O)(=O)Nc1ccc(Nc2ccccc2)cc1OC [GSK0660] (first compound 0.0004 µM, partner dose 1 µM)", "cleaved PARP positive nuclei fraction": 100},
      {"smiles": "CNC(=O)c1cc(Oc2ccc(NC(=O)Nc3ccc(Cl)c(C(F)(F)F)c3)cc2)ccn1", "note": "[sorafenib] + CC(C)(C)c1cnc(CSc2cnc(NC(=O)C3CCNCC3)s2)o1 [SNS-032] (first compound 0.4 µM, partner dose 0.01 µM)", "cleaved PARP positive nuclei fraction": 110},
      {"smiles": "Nc1ccn([C@@H]2O[C@H](CO)[C@@H](O)C2(F)F)c(=O)n1", "note": "[gemcitabine] + OCCn1cc(-c2cnc3nnn(Cc4ccc5ncccc5c4)c3n2)cn1 [PF04217903] (first compound 0.0004 µM, partner dose 1 µM)", "cleaved PARP positive nuclei fraction": 80.2},
      {"smiles": "C=C(c1ccc(C(=O)O)cc1)c1cc2c(cc1C)C(C)(C)CCC2(C)C", "note": "[Bexarotene] + Cc1ccc(NC(=O)c2cccc(N(C)C)c2)cc1NC(=O)c1ccc(O)cc1 [ZM336372] (first compound 2 µM, partner dose 2 µM)", "cleaved PARP positive nuclei fraction": 28.2},
      {"smiles": "Nc1nc(F)nc2c1ncn2[C@@H]1O[C@H](CO)[C@@H](O)[C@@H]1O", "note": "[fludarabine] + C=CCn1c(=O)c2cnc(Nc3ccc(N4CCN(C)CC4)cc3)nc2n1-c1cccc(C(C)(C)O)n1 [MK1775] (first compound 0.2 µM, partner dose 0.02 µM)", "cleaved PARP positive nuclei fraction": 214},
      {"smiles": "Cc1cc(Nc2cc(N3CCN(C)CC3)nc(/C=C/c3ccccc3)n2)n[nH]1", "note": "+ Cn1cc(/C=C2\\C(=O)Nc3cccnc32)c2ccccc21 [GW441756] (first compound 0.04 µM, partner dose 0.4 µM)", "cleaved PARP positive nuclei fraction": 84.6},
      {"smiles": "CC(C)C[C@H](NC(=O)[C@H](Cc1ccccc1)NC(=O)c1cnccn1)B(O)O", "note": "[Bortezomib] + c1cc(-c2cnn3cc(-c4ccc(OCCN5CCCCC5)cc4)cnc23)ccn1 [Dorsomorphin] (first compound 0.001 µM, partner dose 0.4 µM)", "cleaved PARP positive nuclei fraction": 1100},
      {"smiles": "Nc1ncn([C@H]2C[C@H](O)[C@@H](CO)O2)c(=O)n1", "note": "[decitabine] + Cc1cc([N+](=O)[O-])ccc1NS(=O)(=O)c1cc(Cl)ccc1Cl [FH535] (first compound 0.1 µM, partner dose 1 µM)", "cleaved PARP positive nuclei fraction": 173}
    ]}
  ]
}
